# PubChem BioAssay AID652259, Drosophila RNAi Screening Center | 2013
# Aim: 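Identify new Wingless signalling regulators in fly cells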 (primary screen)
# Cells: Drosophila clone 8 imaginal disc epithelial cells
# Knock-down reagent: long dsRNA against Drosophila genes
# Conditions: pathway stimulated by co-transfected Wingless expression plasmid
# Read-out: 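Firefly luciferase from a tcf-site Wingless reporter, measured alongside co-transfected Renilla luciferase that tracks transfection; pathway stimulated by a Wingless plasmid; the firefly-to-Renilla ratio is not deposited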
# Reading the numbers: firefly reporter light: higher = more Wg reporter light, before normalisation; Renilla control light: higher = more transfected or surviving cells
# Call rule: 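a knock-down is a candidate when at least two out of four statistical tests show it departing from its plate mean; one test alone signals a weak candidate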
# Calls: active = candidate regulator (raises or lowers reporter); inactive = not a candidate
# The deposit covers about 22,000 reagents; shown is an unselected part of those with a known target gene and a result. Over the whole deposit, 233 (1.1%) got an active call. 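Light values are raw, unnormalised plate reads; the ratio scores behind the reporter calls were not deposited.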 A plus sign joins genes that one reagent is predicted to hit. The record does not give: the amount of reagent, the time to read-out, the dose of the treatment.
target gene,dsRNA,"reporter change call, replicate 1","firefly reporter light, replicate 1","firefly reporter light, replicate 2","Renilla control light, replicate 1","Renilla control light, replicate 2",call
para,DRSC19141,,3865,,960,,inactive
para,DRSC20360,,20108,,9209,,inactive
CG8323,DRSC07149,,5447,,2868,,inactive
CG14300,DRSC14779,,20253,,3683,,inactive
obst-J,DRSC10821,,17093,,4928,,inactive
Cpr64Ab,DRSC08461,,7479,,3024,,inactive
CG12985,DRSC19505,,20449,,7004,,inactive
Rpn12R,DRSC09842,,5298,,2881,,inactive
CG7560,DRSC10879,,7357,,5193,,inactive
CG32679,DRSC17644,,3159,,986,,inactive
Gr98d,DRSC14571,,6364,,3084,,inactive
CG17140 + CG17139,DRSC02585,,3126,4211,1095,2662,inactive
CG17140 + CG17139,DRSC02586,,3351,7808,1200,3600,inactive
Gr10b,DRSC19477,,18984,,8908,,inactive
spg,DRSC14373,,6691,,3452,,inactive
spg,DRSC14881,,9190,,5243,,inactive
moi + Tgs1,DRSC16371,,13258,,2273,,inactive
CG33914,DRSC05033,,17693,,9159,,inactive
CG33914,DRSC05034,,23192,,11515,,inactive
Cortactin,DRSC16612,,2955,8097,1617,1792,inactive
Jon25Biii,DRSC03115,,2516,6160,1053,2358,inactive
Dbp80,DRSC22034,,7.09e5,7.89e5,3.22e5,3.34e5,inactive
CG15198,DRSC19645,,19700,,9916,,inactive
Muc18B,DRSC20064,,20925,,12763,,inactive
Muc18B,DRSC21644,,5.99e5,5.87e5,2.34e5,2.32e5,inactive
lncRNA:CR43409,DRSC01164,,15372,,8325,,inactive
CG32102,DRSC22015,,7.34e5,5.21e5,2.66e5,3.10e5,inactive

Part of the list above, set out differently:
{"target gene":"CG8323","dsRNA":"DRSC07149","firefly reporter light, replicate 1":5447,"Renilla control light, replicate 1":2868,"call":"inactive"}
{"target gene":"CG14300","dsRNA":"DRSC14779","firefly reporter light, replicate 1":20253,"Renilla control light, replicate 1":3683,"call":"inactive"}
{"target gene":"obst-J","dsRNA":"DRSC10821","firefly reporter light, replicate 1":17093,"Renilla control light, replicate 1":4928,"call":"inactive"}
{"target gene":"Cpr64Ab","dsRNA":"DRSC08461","firefly reporter light, replicate 1":7479,"Renilla control light, replicate 1":3024,"call":"inactive"}
{"target gene":"CG12985","dsRNA":"DRSC19505","firefly reporter light, replicate 1":20449,"Renilla control light, replicate 1":7004,"call":"inactive"}

Continued:
target gene,dsRNA,"reporter change call, replicate 1","firefly reporter light, replicate 1","firefly reporter light, replicate 2","Renilla control light, replicate 1","Renilla control light, replicate 2",call
TSG101,DRSC11098,,14330,,3818,,inactive
PIG-L,DRSC15577,,18152,,4474,,inactive
CG7196 (retired record),DRSC01000,,17388,,8248,,inactive
CG7196 (retired record),DRSC03023,,3002,3754,1028,2053,inactive
Vps13B,DRSC15060,,5954,,2765,,inactive
Lsp1alpha,DRSC20258,,17778,,8922,,inactive
SerT,DRSC04655,,3736,9125,617,1577,inactive
Mes2,DRSC11593,,3120,,953,,inactive
Mes2,DRSC11632,,4776,,1649,,inactive
CG17917,DRSC12570,,11712,,3393,,inactive
Irp-1A,DRSC16719,,4297,10112,1893,2010,inactive
CG3862,DRSC00631,,18409,,8176,,inactive
sw + Sdic4 + Sdic3 + 2 more,DRSC20696,,22272,,9634,,inactive
PPP1R15,DRSC04422,Wg reporter activity raised,9948,,1699,,inactive
THADA,DRSC19675,,3682,7484,1488,3674,inactive
CG31139,DRSC21393,,7.67e5,7.60e5,3.07e5,3.04e5,inactive
CG9667,DRSC16535,,12762,,3005,,inactive
CG18744,DRSC15381,,11080,,3004,,inactive
Bx,DRSC19350,,17363,,4628,,inactive
Bx,DRSC19624,,22272,,10547,,inactive
CG40486,DRSC20619,,2517,4745,739,1969,inactive
CG14302,DRSC14781,,19052,,4067,,inactive
